Data as given in PubChem BioAssay AID1159601 (NIAID, 2016).

Test: 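Which toll-like receptor pathway genes are needed for TNF promoter activation by Pam3CSK4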 (primary screen)
System: human THP-1 reporter cells differentiated with PMA into macrophage-like cells
Reagent: single siRNA against human genes
Timing: ligand added 4 hours before read-out; cells assayed 48 to 72 hours after siRNA transfection
Challenge: Pam3CSK4 (TLR2 ligand) for 4 hours; dose not given
Read-out: 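Firefly over renilla luciferase ratio from a TNF promoter reporter after 4 h Pam3CSK4, plate scaled by median and MAD, robust z-score versus negative controls, replicate mean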
Scale: TNF reporter z-score: higher = stronger TNF promoter reporter activity
Rule for the call: 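The depositor grades each siRNA by the size of its mean z-score in either direction, with steps at 1, 1.5, 2 and 2.5; active calls sit near -1.5 or below, or near 1.5 or above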
Meaning of the calls: active = clear change (up or down); inactive = little change
Shown is one part, drawn at random, of 756 reagents. Of all reagents, 143 (19%) are marked active. 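Calls include both lowered and raised reporter signal; each row is a single siRNA, not a gene summary; Pam3CSK4 dose not stated.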 The numbers tell different reagents against one gene apart. Not stated in the record: the amount of reagent.

no.	Target gene	siRNA no.	TNF reporter z-score, replicate mean	outcome
1	IL6	1	0.661	inactive
2	IL6	2	-0.972	inactive
3	IL6	3	-1.19	inactive
4	IL6	4	-0.0535	inactive
5	IL6	5	-1.27	inactive
6	IL6	6	-0.266	inactive
7	IFNAR1	1	-0.715	inactive
8	IFNAR1	2	-0.643	inactive
9	IFNAR1	3	0.69	inactive
10	IFNAR1	4	-0.486	inactive
11	IFNAR1	5	-1.29	inactive
12	IFNAR1	6	-0.0872	inactive
13	BTK	1	-0.321	inactive
14	BTK	2	1.65	active
15	BTK	3	-1.63	active
16	BTK	4	-0.752	inactive
17	BTK	5	1.46	inactive
18	BTK	6	-0.868	inactive
19	MAPK9	1	0.494	inactive
20	MAPK9	2	-1.29	inactive
21	MAPK9	3	-0.227	inactive
22	MAPK9	4	0.655	inactive
23	MAPK9	5	-1.36	inactive
24	MAPK9	6	-0.246	inactive
25	TLR4	1	1.45	inactive
26	TLR4	2	-0.661	inactive
27	TLR4	3	0.297	inactive
28	TLR4	4	0.957	inactive
29	TLR4	5	-1.13	inactive
30	TLR4	6	-0.969	inactive
31	TRADD	1	1.53	active
32	TRADD	2	-0.698	inactive
33	TRADD	3	-0.714	inactive
34	TRADD	4	-1.15	inactive
35	TRADD	5	0.993	inactive
36	TRADD	6	-5.01	active
37	PIK3CD	1	-0.435	inactive
38	PIK3CD	2	-0.651	inactive
39	PIK3CD	3	0.228	inactive
40	PIK3CD	4	0.417	inactive
41	PIK3CD	5	0.761	inactive
42	PIK3CD	6	0.232	inactive
43	TANK	1	0.877	inactive
44	TANK	2	3.05	active
45	TANK	3	-0.0519	inactive
46	TANK	4	0.941	inactive
47	TANK	5	1.29	inactive
48	TANK	6	0.774	inactive
49	MAPK8	1	0.88	inactive
50	MAPK8	2	-1.59	active
51	MAPK8	3	0.00213	inactive
52	MAPK8	4	-0.00488	inactive
53	MAPK8	5	-0.771	inactive
54	MAPK8	6	0.439	inactive
55	TRAF3	1	0.283	inactive
56	TRAF3	2	-0.738	inactive
57	TRAF3	3	-0.443	inactive
58	TRAF3	4	-0.421	inactive
59	TRAF3	5	-1.35	inactive
60	TRAF3	6	0.098	inactive
61	IRAK1	1	-0.96	inactive
62	IRAK1	2	-2.99	active
63	IRAK1	3	-4.31	active
64	IRAK1	4	-1.42	inactive
65	IRAK1	5	-2.57	active
66	IRAK1	6	-3.31	active
67	SIGIRR	1	-0.182	inactive
68	SIGIRR	2	-0.676	inactive
69	SIGIRR	3	-0.889	inactive
70	SIGIRR	4	-0.992	inactive
71	SIGIRR	5	1.03	inactive
72	SIGIRR	6	-0.895	inactive
73	TLR3	1	1.86	active
74	TLR3	2	-1.75	active
75	TLR3	3	0.00714	inactive
76	TLR3	4	-0.171	inactive
77	TLR3	5	-0.189	inactive
78	TLR3	6	-0.451	inactive
79	LY86	1	0.196	inactive
80	LY86	2	-0.51	inactive
81	LY86	3	-0.647	inactive
82	LY86	4	-2.15	active
83	LY86	5	-0.757	inactive
84	LY86	6	-0.445	inactive
85	DAB2IP	1	-1.11	inactive
86	DAB2IP	2	-1.69	active
87	DAB2IP	3	1.17	inactive
88	DAB2IP	4	-0.853	inactive
89	DAB2IP	5	-1.27	inactive
90	DAB2IP	6	0.364	inactive
91	PIK3R1	1	-0.0859	inactive
92	PIK3R1	2	-0.933	inactive
93	PIK3R1	3	0.0297	inactive
94	PIK3R1	4	0.307	inactive
95	PIK3R1	5	-2.21	active
96	PIK3R1	6	0.0373	inactive
97	CXCL9	1	-0.764	inactive
98	CXCL9	2	-0.951	inactive
99	CXCL9	3	-1.16	inactive
100	CXCL9	4	-1.24	inactive
101	CXCL9	5	-0.0966	inactive
102	CXCL9	6	0.131	inactive
103	IRF5	1	-3.72	active
104	IRF5	2	-0.741	inactive
105	IRF5	3	-0.88	inactive
106	IRF5	4	-0.251	inactive
107	IRF5	5	-2.15	active
108	IRF5	6	1.61	active
109	PIK3R2	1	0.33	inactive
110	PIK3R2	2	-1.28	inactive
111	PIK3R2	3	0.418	inactive
112	PIK3R2	4	-0.645	inactive
113	PIK3R2	5	0.125	inactive
114	PIK3R2	6	0.162	inactive

Targets listed so far whose gene name starts with C or c:
Target gene	siRNA no.	TNF reporter z-score, replicate mean	outcome
CXCL9	1	-0.764	inactive
CXCL9	2	-0.951	inactive
CXCL9	3	-1.16	inactive
CXCL9	4	-1.24	inactive
CXCL9	5	-0.0966	inactive
CXCL9	6	0.131	inactive
